Test results taken from ChEMBL document CHEMBL5465560, “Selectivity Literature for EUbOPEN Chemogenomic Library” (2024).

Amino acid sequences for entries named in this document (tags omitted). A change or cut given only in a name is not applied to a line headed by its entry.
UniProt Q9Y243: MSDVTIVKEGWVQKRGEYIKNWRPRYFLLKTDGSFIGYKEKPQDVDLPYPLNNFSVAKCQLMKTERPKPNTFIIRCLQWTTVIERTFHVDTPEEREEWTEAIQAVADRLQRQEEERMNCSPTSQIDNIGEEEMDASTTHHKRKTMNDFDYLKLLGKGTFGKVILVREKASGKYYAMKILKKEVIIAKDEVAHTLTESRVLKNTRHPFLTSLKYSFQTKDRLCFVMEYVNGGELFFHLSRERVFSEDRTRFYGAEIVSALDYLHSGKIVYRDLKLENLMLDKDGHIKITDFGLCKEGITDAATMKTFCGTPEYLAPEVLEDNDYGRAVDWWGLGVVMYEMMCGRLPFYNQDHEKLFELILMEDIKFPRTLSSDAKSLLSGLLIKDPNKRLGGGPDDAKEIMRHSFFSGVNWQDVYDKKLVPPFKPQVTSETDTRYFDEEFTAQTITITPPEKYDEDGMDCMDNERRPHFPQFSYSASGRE
UniProt Q9BXA7: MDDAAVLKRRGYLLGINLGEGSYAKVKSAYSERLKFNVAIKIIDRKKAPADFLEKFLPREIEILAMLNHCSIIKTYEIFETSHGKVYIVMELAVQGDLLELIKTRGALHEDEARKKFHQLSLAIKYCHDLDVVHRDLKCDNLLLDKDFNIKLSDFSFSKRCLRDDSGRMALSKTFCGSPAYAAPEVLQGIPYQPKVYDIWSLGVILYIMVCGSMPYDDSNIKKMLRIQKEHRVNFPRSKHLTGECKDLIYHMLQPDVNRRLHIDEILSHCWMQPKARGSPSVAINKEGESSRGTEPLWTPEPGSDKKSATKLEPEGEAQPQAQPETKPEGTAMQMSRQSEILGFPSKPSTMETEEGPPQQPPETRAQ
UniProt Q8N568: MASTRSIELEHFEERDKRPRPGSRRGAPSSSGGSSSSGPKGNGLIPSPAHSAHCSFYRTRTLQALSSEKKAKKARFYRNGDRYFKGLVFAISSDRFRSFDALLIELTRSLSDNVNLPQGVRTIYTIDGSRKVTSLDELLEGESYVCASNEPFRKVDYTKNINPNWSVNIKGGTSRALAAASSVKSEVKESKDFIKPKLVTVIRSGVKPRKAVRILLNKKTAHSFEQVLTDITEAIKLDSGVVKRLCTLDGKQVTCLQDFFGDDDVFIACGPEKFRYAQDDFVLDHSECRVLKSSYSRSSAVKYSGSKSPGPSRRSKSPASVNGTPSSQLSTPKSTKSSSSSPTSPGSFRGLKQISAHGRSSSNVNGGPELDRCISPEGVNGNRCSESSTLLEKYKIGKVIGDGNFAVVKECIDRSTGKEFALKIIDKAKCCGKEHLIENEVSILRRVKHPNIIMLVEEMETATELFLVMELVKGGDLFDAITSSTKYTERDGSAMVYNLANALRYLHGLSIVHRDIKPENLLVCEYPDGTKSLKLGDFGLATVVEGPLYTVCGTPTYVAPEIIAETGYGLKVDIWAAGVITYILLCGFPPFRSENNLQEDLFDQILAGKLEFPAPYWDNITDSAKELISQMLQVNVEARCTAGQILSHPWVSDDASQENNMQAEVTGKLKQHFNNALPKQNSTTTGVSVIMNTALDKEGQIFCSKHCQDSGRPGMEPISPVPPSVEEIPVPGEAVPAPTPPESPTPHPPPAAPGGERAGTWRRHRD
UniProt Q04759: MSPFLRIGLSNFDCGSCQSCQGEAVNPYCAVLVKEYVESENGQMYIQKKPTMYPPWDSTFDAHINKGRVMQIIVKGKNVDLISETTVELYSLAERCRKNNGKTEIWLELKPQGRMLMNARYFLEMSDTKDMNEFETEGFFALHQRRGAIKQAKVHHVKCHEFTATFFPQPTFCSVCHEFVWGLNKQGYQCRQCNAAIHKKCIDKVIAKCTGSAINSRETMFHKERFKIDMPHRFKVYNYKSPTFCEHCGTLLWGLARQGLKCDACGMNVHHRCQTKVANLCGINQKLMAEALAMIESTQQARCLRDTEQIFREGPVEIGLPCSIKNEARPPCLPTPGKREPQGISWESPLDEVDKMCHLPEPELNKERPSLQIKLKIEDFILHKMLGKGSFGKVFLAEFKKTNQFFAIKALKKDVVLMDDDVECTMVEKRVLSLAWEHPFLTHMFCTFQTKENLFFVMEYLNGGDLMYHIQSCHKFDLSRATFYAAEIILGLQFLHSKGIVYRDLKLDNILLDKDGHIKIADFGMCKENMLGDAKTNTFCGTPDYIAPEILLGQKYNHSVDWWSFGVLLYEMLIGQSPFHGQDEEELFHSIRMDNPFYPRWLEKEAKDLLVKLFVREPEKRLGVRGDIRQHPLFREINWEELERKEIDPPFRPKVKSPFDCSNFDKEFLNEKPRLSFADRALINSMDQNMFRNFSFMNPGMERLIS
UniProt Q99683: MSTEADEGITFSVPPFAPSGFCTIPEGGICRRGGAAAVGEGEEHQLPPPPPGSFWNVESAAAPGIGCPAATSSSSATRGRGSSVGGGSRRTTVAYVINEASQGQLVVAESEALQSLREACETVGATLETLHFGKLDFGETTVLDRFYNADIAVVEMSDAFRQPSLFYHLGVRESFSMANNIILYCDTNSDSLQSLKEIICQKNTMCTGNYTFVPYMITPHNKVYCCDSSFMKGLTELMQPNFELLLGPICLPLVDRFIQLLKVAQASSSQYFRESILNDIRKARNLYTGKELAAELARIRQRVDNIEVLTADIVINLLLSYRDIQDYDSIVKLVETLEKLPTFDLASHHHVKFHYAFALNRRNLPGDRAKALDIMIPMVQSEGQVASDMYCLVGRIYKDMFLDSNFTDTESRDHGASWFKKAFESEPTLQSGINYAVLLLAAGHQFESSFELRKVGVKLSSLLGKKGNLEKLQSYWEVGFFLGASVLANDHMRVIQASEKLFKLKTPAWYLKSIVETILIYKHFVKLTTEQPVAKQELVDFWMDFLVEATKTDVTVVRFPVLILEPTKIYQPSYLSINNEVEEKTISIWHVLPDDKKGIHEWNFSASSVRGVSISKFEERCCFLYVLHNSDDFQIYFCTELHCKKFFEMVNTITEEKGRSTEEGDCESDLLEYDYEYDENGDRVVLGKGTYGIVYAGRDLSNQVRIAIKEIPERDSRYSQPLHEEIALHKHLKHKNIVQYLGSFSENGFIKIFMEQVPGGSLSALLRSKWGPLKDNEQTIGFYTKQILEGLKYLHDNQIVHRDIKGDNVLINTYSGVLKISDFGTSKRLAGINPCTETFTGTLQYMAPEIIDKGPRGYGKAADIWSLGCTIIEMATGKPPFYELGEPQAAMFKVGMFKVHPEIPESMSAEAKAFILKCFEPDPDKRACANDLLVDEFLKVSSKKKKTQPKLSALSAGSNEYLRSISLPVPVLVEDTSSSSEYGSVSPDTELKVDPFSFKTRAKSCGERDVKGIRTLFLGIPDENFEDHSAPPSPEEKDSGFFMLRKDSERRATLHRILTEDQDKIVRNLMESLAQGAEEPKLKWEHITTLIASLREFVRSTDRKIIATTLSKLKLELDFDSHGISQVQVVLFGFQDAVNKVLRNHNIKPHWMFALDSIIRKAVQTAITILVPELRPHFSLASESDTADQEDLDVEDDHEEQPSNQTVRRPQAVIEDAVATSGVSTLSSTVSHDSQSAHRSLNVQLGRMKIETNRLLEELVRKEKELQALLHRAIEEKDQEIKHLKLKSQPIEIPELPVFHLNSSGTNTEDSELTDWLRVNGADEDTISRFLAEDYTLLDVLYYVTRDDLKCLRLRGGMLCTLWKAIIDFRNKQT
UniProt Q9BWU1: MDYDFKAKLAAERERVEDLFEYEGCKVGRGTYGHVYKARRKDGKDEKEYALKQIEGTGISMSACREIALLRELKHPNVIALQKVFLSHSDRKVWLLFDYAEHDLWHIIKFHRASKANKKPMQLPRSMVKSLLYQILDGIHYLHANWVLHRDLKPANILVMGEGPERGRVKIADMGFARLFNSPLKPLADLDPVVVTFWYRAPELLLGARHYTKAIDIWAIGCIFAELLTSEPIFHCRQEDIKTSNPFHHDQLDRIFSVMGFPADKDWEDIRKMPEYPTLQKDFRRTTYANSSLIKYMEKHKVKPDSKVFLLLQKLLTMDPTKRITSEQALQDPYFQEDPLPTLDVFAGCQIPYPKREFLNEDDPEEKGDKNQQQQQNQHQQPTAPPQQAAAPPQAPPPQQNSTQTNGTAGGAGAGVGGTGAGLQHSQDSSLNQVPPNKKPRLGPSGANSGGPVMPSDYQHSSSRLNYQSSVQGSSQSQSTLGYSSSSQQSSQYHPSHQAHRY
UniProt Q86YV6: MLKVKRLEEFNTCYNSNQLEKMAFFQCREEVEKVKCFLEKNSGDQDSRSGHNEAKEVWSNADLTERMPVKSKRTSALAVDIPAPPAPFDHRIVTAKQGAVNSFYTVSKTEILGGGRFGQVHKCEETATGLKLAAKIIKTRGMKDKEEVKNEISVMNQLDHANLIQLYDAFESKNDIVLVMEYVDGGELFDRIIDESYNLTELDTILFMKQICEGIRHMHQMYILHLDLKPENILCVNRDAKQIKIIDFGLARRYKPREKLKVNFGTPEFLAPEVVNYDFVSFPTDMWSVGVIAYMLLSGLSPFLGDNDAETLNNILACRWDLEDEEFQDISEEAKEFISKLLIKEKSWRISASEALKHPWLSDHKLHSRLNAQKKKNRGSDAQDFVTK
UniProt Q2M2I8: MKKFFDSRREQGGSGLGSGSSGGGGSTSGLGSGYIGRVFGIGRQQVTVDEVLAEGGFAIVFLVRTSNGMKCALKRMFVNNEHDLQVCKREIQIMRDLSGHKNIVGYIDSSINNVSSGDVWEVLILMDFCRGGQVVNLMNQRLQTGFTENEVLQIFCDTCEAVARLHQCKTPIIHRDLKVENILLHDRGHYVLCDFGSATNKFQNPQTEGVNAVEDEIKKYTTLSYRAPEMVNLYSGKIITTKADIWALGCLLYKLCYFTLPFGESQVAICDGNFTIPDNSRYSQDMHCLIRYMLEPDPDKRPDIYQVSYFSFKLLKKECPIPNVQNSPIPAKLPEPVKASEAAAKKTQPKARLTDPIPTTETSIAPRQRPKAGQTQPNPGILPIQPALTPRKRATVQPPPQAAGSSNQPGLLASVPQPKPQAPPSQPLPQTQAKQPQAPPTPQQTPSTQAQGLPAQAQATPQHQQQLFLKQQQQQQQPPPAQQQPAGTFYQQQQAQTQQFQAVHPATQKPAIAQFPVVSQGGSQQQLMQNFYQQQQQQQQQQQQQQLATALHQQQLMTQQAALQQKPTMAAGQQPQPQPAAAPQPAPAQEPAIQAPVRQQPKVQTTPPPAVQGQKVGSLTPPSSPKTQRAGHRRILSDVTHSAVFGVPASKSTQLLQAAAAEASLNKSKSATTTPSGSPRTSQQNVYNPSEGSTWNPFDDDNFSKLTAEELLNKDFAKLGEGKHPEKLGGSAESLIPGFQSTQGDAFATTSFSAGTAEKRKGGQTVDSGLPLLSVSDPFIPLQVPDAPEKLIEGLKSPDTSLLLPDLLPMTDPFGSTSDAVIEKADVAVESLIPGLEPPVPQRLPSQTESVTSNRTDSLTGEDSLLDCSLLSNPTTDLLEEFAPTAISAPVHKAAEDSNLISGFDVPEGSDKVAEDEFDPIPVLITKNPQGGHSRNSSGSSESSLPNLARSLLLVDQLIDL
UniProt Q16832: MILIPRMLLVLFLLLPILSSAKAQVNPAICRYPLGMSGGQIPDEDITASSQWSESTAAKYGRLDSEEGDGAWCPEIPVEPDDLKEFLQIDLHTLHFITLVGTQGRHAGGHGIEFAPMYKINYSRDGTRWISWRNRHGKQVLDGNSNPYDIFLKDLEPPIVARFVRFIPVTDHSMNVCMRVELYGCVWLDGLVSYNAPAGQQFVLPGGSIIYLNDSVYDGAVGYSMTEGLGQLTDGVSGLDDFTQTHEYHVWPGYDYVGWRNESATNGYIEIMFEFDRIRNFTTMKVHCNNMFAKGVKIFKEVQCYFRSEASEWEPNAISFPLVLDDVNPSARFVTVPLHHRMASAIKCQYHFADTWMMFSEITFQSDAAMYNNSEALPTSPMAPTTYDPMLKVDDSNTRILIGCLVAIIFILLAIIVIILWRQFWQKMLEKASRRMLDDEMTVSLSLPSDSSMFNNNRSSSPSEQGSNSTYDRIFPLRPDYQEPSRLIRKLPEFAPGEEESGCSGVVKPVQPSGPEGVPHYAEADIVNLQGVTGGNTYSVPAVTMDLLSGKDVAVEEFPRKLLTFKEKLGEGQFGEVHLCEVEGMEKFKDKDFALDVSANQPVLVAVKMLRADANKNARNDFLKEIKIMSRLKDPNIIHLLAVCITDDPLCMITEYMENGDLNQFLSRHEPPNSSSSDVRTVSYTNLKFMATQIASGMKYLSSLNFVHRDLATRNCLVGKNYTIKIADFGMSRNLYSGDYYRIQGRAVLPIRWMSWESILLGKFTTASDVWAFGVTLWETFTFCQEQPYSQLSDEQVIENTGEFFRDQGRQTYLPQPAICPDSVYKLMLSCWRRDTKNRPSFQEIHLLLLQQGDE

Tests used:
Details in all cases: at 1 µM
[1] = target: RAC-gamma serine/threonine-protein kinase (Homo sapiens, UniProt Q9Y243)
[2] = target: Mitogen-activated protein kinase 9 (Homo sapiens, UniProt P45984); assay: Selectivity interaction (KinomeScan (DiscoverX)) EUB0001581a MAPK9
[3] = target: Serine/threonine-protein kinase BRSK2 (Homo sapiens) (UniProt Q8IWQ3); assay: Selectivity interaction (KinomeScan (DiscoverX)) EUB0001581a BRSK2
[4] = target: Serine/threonine-protein kinase Nek3 (Homo sapiens) (UniProt P51956); assay: Selectivity interaction (KinomeScan (DiscoverX)) EUB0001581a NEK3
[5] = target: RAC-beta serine/threonine-protein kinase (Homo sapiens) (UniProt P31751); assay: Selectivity interaction (KinomeScan (DiscoverX)) EUB0001581a AKT2
[6] = target: Testis-specific serine/threonine-protein kinase 1 (Homo sapiens) (UniProt Q9BXA7); assay: Selectivity interaction (KinomeScan (DiscoverX)) EUB0001581a TSSK1B
[7] = target: Fibroblast growth factor receptor 1 (Homo sapiens, UniProt P11362); assay: Selectivity interaction (KinomeScan (DiscoverX)) EUB0001581a FGFR1
[8] = target: Inhibitor of nuclear factor kappa-B kinase subunit epsilon (Homo sapiens) (UniProt Q14164); assay: Selectivity interaction (KinomeScan (DiscoverX)) EUB0001581a IKBKE
[9] = target: Serine/threonine-protein kinase DCLK2 (Homo sapiens) (UniProt Q8N568); assay: Selectivity interaction (KinomeScan (DiscoverX)) EUB0001581a DCLK2
[10] = target: Cyclin-dependent kinase-like 5 (Homo sapiens) (UniProt O76039); assay: Selectivity interaction (KinomeScan (DiscoverX)) EUB0001581a CDKL5
[11] = target: Mitogen-activated protein kinase 10 (Homo sapiens, UniProt P53779); assay: Selectivity interaction (KinomeScan (DiscoverX)) EUB0001581a MAPK10
[12] = target: Ephrin type-A receptor 1 (Homo sapiens) (UniProt P21709); assay: Selectivity interaction (KinomeScan (DiscoverX)) EUB0001581a EPHA1
[13] = target: Death-associated protein kinase 1 (Homo sapiens, UniProt P53355)
[14] = target: Calcium/calmodulin-dependent protein kinase type II subunit alpha (Homo sapiens, UniProt Q9UQM7); assay: Selectivity interaction (KinomeScan (DiscoverX)) EUB0001581a CAMK2A
[15] = target: Protein kinase C theta type (Homo sapiens, UniProt Q04759); assay: Selectivity interaction (KinomeScan (DiscoverX)) EUB0001581a PRKCQ
[16] = target: Dual specificity protein kinase TTK (Homo sapiens) (UniProt P33981); assay: Selectivity interaction (KinomeScan (DiscoverX)) EUB0001581a TTK
[17] = target: Casein kinase II subunit alpha' (Homo sapiens) (UniProt P19784); assay: Selectivity interaction (KinomeScan (DiscoverX)) EUB0001581a CSNK2A2
[18] = target: Bone morphogenetic protein receptor type-1A (Homo sapiens, UniProt P36894); assay: Selectivity interaction (KinomeScan (DiscoverX)) EUB0001581a BMPR1A
[19] = target: Mitogen-activated protein kinase kinase kinase 5 (Homo sapiens) (UniProt Q99683); assay: Selectivity interaction (KinomeScan (DiscoverX)) EUB0001581a MAP3K5
[20] = target: Non-receptor tyrosine-protein kinase TYK2 (Homo sapiens, UniProt P29597); assay: Selectivity interaction (KinomeScan (DiscoverX)) EUB0001581a TYK2
[21] = target: Vascular endothelial growth factor receptor 3 (Homo sapiens, UniProt P35916); assay: Selectivity interaction (KinomeScan (DiscoverX)) EUB0001581a FLT4
[22] = target: MAP kinase-activated protein kinase 2 (Homo sapiens, UniProt P49137); assay: Selectivity interaction (KinomeScan (DiscoverX)) EUB0001581a MAPKAPK2
[23] = target: Mitogen-activated protein kinase kinase kinase kinase 5 (Homo sapiens) (UniProt Q9Y4K4); assay: Selectivity interaction (KinomeScan (DiscoverX)) EUB0001581a MAP4K5
[24] = target: Cyclin-dependent kinase 19 (Homo sapiens) (UniProt Q9BWU1); assay: Selectivity interaction (KinomeScan (DiscoverX)) EUB0001581a CDK19
[25] = target: Serine/threonine-protein kinase MRCK beta (Homo sapiens) (UniProt Q9Y5S2); assay: Selectivity interaction (KinomeScan (DiscoverX)) EUB0001581a CDC42BPB
[26] = target: Tyrosine-protein kinase FRK (Homo sapiens) (UniProt P42685); assay: Selectivity interaction (KinomeScan (DiscoverX)) EUB0001581a FRK
[27] = target: Dual serine/threonine and tyrosine protein kinase (Homo sapiens) (UniProt Q6XUX3); assay: Selectivity interaction (KinomeScan (DiscoverX)) EUB0001581a DSTYK
[28] = target: Homeodomain-interacting protein kinase 4 (Homo sapiens) (UniProt Q8NE63); assay: Selectivity interaction (KinomeScan (DiscoverX)) EUB0001581a HIPK4
[29] = target: Myosin light chain kinase family member 4 (Homo sapiens) (UniProt Q86YV6); assay: Selectivity interaction (KinomeScan (DiscoverX)) EUB0001581a MYLK4
[30] = target: Atypical kinase COQ8B, mitochondrial (Homo sapiens) (UniProt Q96D53); assay: Selectivity interaction (KinomeScan (DiscoverX)) EUB0001581a ADCK4
[31] = target: Serine/threonine-protein kinase PLK2 (Homo sapiens, UniProt Q9NYY3); assay: Selectivity interaction (KinomeScan (DiscoverX)) EUB0001581a PLK2
[32] = target: Serine/threonine-protein kinase ULK3 (Homo sapiens) (UniProt Q6PHR2); assay: Selectivity interaction (KinomeScan (DiscoverX)) EUB0001581a ULK3
[33] = target: AP2-associated protein kinase 1 (Homo sapiens, UniProt Q2M2I8); assay: Selectivity interaction (KinomeScan (DiscoverX)) EUB0001581a AAK1
[34] = target: Citron Rho-interacting kinase (Homo sapiens) (UniProt O14578); assay: Selectivity interaction (KinomeScan (DiscoverX)) EUB0001581a CIT
[35] = target: Interleukin-1 receptor-associated kinase 1 (Homo sapiens) (UniProt P51617); assay: Selectivity interaction (KinomeScan (DiscoverX)) EUB0001581a IRAK1
[36] = target: Receptor tyrosine-protein kinase erbB-3 (Homo sapiens) (UniProt P21860); assay: Selectivity interaction (KinomeScan (DiscoverX)) EUB0001581a ERBB3
[37] = target: Ephrin type-A receptor 3 (Homo sapiens) (UniProt P29320)
[38] = target: Discoidin domain-containing receptor 2 (Homo sapiens) (UniProt Q16832); assay: Selectivity interaction (KinomeScan (DiscoverX)) EUB0001581a DDR2
[39] = target: Calcium/calmodulin-dependent protein kinase type IV (Homo sapiens) (UniProt Q16566); assay: Selectivity interaction (KinomeScan (DiscoverX)) EUB0001581a CAMK4

`C[C@@H]1C[C@H](N)C[C@H](c2ccncc2NC(=O)c2ccc(F)c(-c3c(F)cccc3F)n2)C1` was tested, and the % of control [1] was 94%, the % of control [2] was 100% and the % of control [3] was 100%. For the same compound, the % of control [4] was 100%, the % of control [5] was 100% and the % of control [6] was 98%. The % of control [7] was 97%, the % of control [8] was 93% and the % of control [9] was 100%. It also gave a % of control [10] of 100%, a % of control [11] of 100% and a % of control [12] of 100%. For the same compound, the % of control [13] was 96%, the % of control [14] was 100% and the % of control [15] was 66%. The % of control [16] was 100%, the % of control [17] was 52% and the % of control [18] was 84%. The % of control [19] was 100%, the % of control [20] was 88% and the % of control [21] was 100%. For the same compound, the % of control [22] was 93%, the % of control [23] was 100% and the % of control [24] was 100%. It also gave a % of control [25] of 100%, a % of control [26] of 100% and a % of control [27] of 93%. For the same compound, the % of control [28] was 84%, the % of control [29] was 90% and the % of control [30] was 100%. The % of control [31] was 88%, the % of control [32] was 100% and the % of control [33] was 81%. For the same compound, the % of control [34] was 38%, the % of control [35] was 100% and the % of control [36] was 100%. It also gave a % of control [37] of 95%, a % of control [38] of 100% and a % of control [39] of 73%.
